Reference: patent US20220106564A1, “COMPOSITION AND KIT FOR DIFFERENTIATION OF STEM CELLS INTO NEURAL CREST STEM CELLS, INCLUDING INHIBITOR OF TGF-BETA I RECEPTOR AND BMP INHIBITOR, AND METHOD USING SAME” (CHA UNIVERSITY INDUSTRY-ACADEMIC COOPERATION FOUNDATION, priority 2019, published 2022)
Some entries share one result that the patent states for a list of compounds.

Assays:
[1] = tested on: H9 human embryonic stem cells (hESCs); assay: Flow cytometry for SOX1 (neural progenitor cell marker) in cultured cells; format: cell-based; details: 5 μM BMP inhibitor + 10 μM SB431542; suspension culture 4 days + adherent culture 5 days (FIG. 2B)
[2] = tested on: H9 human embryonic stem cells (hESCs); assay: Flow cytometry for P75 (neural crest stem cell marker) in cultured cells; format: cell-based; details: 0.5 μM BMP inhibitor + 10 μM SB431542; suspension culture 4 days + adherent culture 5 days (FIG. 2A)
Protocol: The obtained colonies were finely chopped and suspension-cultured under conditions of 37° C. and 5% CO2 in an EB medium containing 10 μM of SB431542 (GlaxoSmithKline: GSK) as a TGF-β I receptor inhibitor and 0.5 μM to 1 μM of dorsomorphin homolog 1 (DMH1) (Tocris Bioscience, USA) or dorsomorphin (Tocris Bioscience, […]). EB medium contained DMEM/F12 (Life Technologies), 20%(v/v) Knockout serum replacement (KSR, Invitrogen), lx non-essential amino acids (Invitrogen), 0.1 mM 13-mercaptoethanol (Invitrogen), and lx penicillin/streptomycin (Invitrogen). As a negative control, dimethyl sulfoxide (DMSO) (Sigma-Aldrich) was used instead of the drug. […] To analyze a proportion of cells expressing P75 protein which is a neural crest stem cell (NCSC) marker, or SOX1 which is a neural progenitor cell (NPC) marker, immunostaining was performed using phycoerythrin (PE)-labeled anti-P75 monoclonal antibody (1:50 dilution) (Miltenyi Biotec), and phycoerythrin (PE)-labeled anti-Sox1 monoclonal antibody (1:100 dilution) (BD Biosciences). The immunostained cells were subjected to flow cytometry using a BD FACSCalibur flow cytometer (BD Biosciences, Sparks, Md., USA). The results of flow cytometry are shown in FIGS. 2A and 2B (FIG. 2A: a graph of P75 flow cytometry, FIG. 2B: a graph of SOX1 flow cytometry). […]

## CC(C)Oc1ccc(-c2cnc3c(-c4ccnc5ccccc45)cnn3c2)cc1 [DMH1, 4-[6-[4-(1-Methylethoxy)phenyl]pyrazolo[1,5-a]pyrimidin-3-yl]-quinoline]
[1]
  proportion of SOX1-expressing cells: ≥ 86%
[2]
  proportion of P75-expressing cells: ≥ 61%

## c1cc(-c2cnn3cc(-c4ccc(OCCN5CCCCC5)cc4)cnc23)ccn1 [dorsomorphin, 6-[4-[2-(1-Piperidinyl)pethoxy]phenyl]-3-(4-pyridinyl)-pyrazolo[1,5-a]pyrimidine]
[1]
  proportion of SOX1-expressing cells: ≥ 86%
[2]
  proportion of P75-expressing cells: ≥ 61%
